Screen size: about 340,000 compounds; about 170 (0.05%) were called active. This list was built around the results that the source calls inconclusive (neither active nor inactive); the mix of calls is not that of the screen. The call rests on the fitted dose curve; in most records, active means well fitted inhibition curve with a large enough effect in the signal ratio, with a control signal flat (not every such curve was filed as active); inconclusive means small, poorly fitted or top-dose-only effect, or effect the other way, or a change in a side signal; inactive means flat fitted curve, though single readings scatter; the % refers to the signal ratio. A potency beside an inconclusive call is a rough fit, not a confirmed value.
assay: qHTS Assay to Find Inhibitors of Chronic Active B-Cell Receptor Signaling; settings: ABC-DLBCL IkBa-CBG/CBR reporter, luminescence ratio (green luciferase fused to IkBa over red control in TMD8 lymphoma cells), 4 h; activity change, negative = inhibition: at 46.1 µM (top of the series);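 on activity change, negative = inhibition: plate controls were basal doxycycline-induced cells for no effect and cells given 10 µM MG132 for full effect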
In short: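 Doxycycline induced both beetle luciferases in TMD8 lymphoma cells; IKK-driven degradation limits the IkappaBalpha-fused green signal, while red luminescence normalises for cell number and nonspecific effects. Compounds tested up to 46 uM, 4 hrs.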
Potency means the concentration at half of the fitted maximal effect.

Row | SMILES | activity change, negative = inhibition | Potency
1 | CCc1ccccc1OCCCOc1ccc(OC)cc1 | inconclusive: 18.5% | 
2 | COc1cc(NC(=O)Cn2ncc3c2-c2ccccc2OC3)cc(OC)c1OC |  | inconclusive: 35.5 µM [falling, partial curve, poor fit]
3 | COc1ccc2[nH]c(=O)c(C3c4cc(OC)c(OC)cc4CCN3C(=O)c3ccco3)cc2c1 (stereo unspecified) | inconclusive: -12.6% | 
4 | CCc1ccc(NC(=O)CSc2ccc(-c3ccco3)nn2)cc1 | inconclusive: -0.24% | 
5 | O=C(NCCN1CCCCC1)Nc1ccc(Cl)cc1 | inconclusive: 8.92% | 
6 | CC(C)(C)C(=O)N(Cc1ccc(Cl)cc1)c1cnccn1 | inactive | 
7 | CNC(C)C#Cc1ccc2c(=O)c3c(OC)cccc3oc2c1 (stereo unspecified) |  | inconclusive: 5.01 µM [rising, full curve]
8 | CC(C)(C)N1CC(c2nc3ccccc3n2CCOc2ccccc2)CC1=O (stereo unspecified) |  | inconclusive: 8.2 µM [rising, partial curve, poor fit]
9 | Cc1c(C(=O)Nc2ccc(S(=O)(=O)N(C)C3CCN(C)CC3)cc2)oc2c(Cl)cccc12 |  | inconclusive: 32.6 µM [falling, single point]
10 | O=c1cc(C(F)(F)F)[nH]c2c(C(F)(F)F)cccc12 | inactive | 
11 | O=C(CN1C(=O)NC(Cc2c[nH]c3ccccc23)C1=O)Nc1ccc(F)c(F)c1F (stereo unspecified) | inactive | 
12 | Cc1ccc(-n2cc3ccc([N+](=O)[O-])cc3n2)cc1 | inconclusive: 1.03% | 
13 | COc1cc(Cl)c(C)cc1NC(=O)COC(=O)CCc1nc2ccccc2c(=O)[nH]1 | inactive | 
14 | Cc1cccc2c1[nH]c1nc(N/N=C\c3ccco3)nnc12 |  | inconclusive: 9.2 µM [falling, partial curve]
15 | CCOC(=O)c1ccc(NS(=O)(=O)c2c(C)[nH]c(C)c2C(=O)N2CCCCC2)cc1 | inactive | 
16 | C/C(=N\Nc1ccc(C)c(Cl)c1)c1cccnc1 | inactive | 
17 | O=C(/C(=C/O)N=Nc1ccc(Cl)cc1)c1ccncc1 | inconclusive: 10.6% | 
18 | c1ccc(Nc2cccc3c(Nc4ccccc4)cccc23)cc1 | inconclusive: 15.3% | 
19 | Cc1c(Cl)cccc1NC(=S)NNc1ncc(C(F)(F)F)cc1Cl | inactive | 
20 | O=P(C1=C(N2CCOCC2)/C(=C\c2ccccc2)CC1)(N1CCOCC1)N1CCOCC1 | inactive | 
21 | COc1ccc(-c2n[nH]c(C)c2-c2cc(OC)ccc2O)cc1 | inconclusive: -14.1% | 
22 | C/C=C(/C)C(=O)Nc1cccc(C2=NOC3(C2)C[C@H](C(N)=O)N(C(=O)c2ccc(Cl)cc2)C3)c1 (stereo partly specified) | inconclusive: -16.4% | 
23 | CC(C)Nc1nc(NNc2nc(Cl)nc(NC(C)(C)C)n2)nc(NC(C)C)n1 | inconclusive: 10.7% | 
24 | COc1ccccc1NC(=O)c1ccc(CSc2ncccn2)cc1 |  | inconclusive: 20 µM [falling, single point]
25 | NS(=O)(=O)c1cc(C(=O)N2CCNC(=O)C2)ccc1Cl | inconclusive: 11.6% | 
26 | CS(=O)(=O)N(CC(=O)Nc1cccc(Cl)c1)c1ccccc1Cl | inconclusive: 17% | 

Row | SMILES | activity change, negative = inhibition | Potency
27 | N/C(=N\OC(=O)N1CCOCC1)c1ccc(Br)cc1 |  | inconclusive: 22.4 µM [falling, single point]
28 | C/C(=N\NC(=O)CSCc1ccc(Cl)cc1)c1ccc(NC(=O)c2ccccc2)cc1 |  | inconclusive: 23.1 µM [falling, partial curve]
29 | CCCCN(C(=O)c1oc2ccc(OCC)cc2c1C)c1c(N)n(CC(C)C)c(=O)[nH]c1=O | inactive | 
30 | CCn1c(NCCO)nc2c(c1=O)C(C)(CC)Cc1ccccc1-2 (stereo unspecified) | inactive | 
31 | Cc1ccc2c(c1)C(=O)C(=O)N2c1ccc(Cl)cc1 | inactive | 
32 | Cc1cc(NS(=O)(=O)c2ccc(Nc3nc(-c4sc(NC(=O)c5ccccc5)nc4C)cs3)cc2)no1 |  | inconclusive: 11.6 µM [falling, partial curve]
33 | Brc1ccc(CN2CCN(c3ccccn3)CC2)s1 | inactive | 
34 | NC(=S)N/N=C/c1ccccc1[N+](=O)[O-] | inconclusive: 2.35% | 
35 | CCCc1cc(=O)[nH]c(Nc2ccc(Cl)cc2)n1 | inconclusive: 0.0976% | 
36 | CCN(CC)CCNC(=O)c1c(C)oc2cc(Br)c(OC)cc12 | inconclusive: -1.84% | 
37 | CCn1ccc(C(=O)Oc2ccc(C(C)C)cc2)n1 | inconclusive: 17.5% | 
38 | COc1ccc(N/N=C/c2c(C(=O)O)ccc3ccccc23)cc1 |  | inconclusive: 3.16 µM [falling, single point]
39 | CC(C)c1ccc(NC(=O)COc2ccccc2)cc1 | inconclusive: 12.4% | 
40 | COc1ccccc1S(=O)(=O)Cc1ccc(C(=O)N2CCN(c3cccc(Cl)c3)CC2)o1 |  | inconclusive: 25.1 µM [falling, partial curve, poor fit]
41 | Cc1cccc(NC(=O)C2CCN(S(=O)(=O)c3cccc4cccnc34)CC2)n1 | inconclusive: 4.05% | 
42 | O=C1CN(C(=O)c2cc3ccccc3oc2=O)C(c2ccc(F)cc2)c2cc(Br)ccc2N1 (stereo unspecified) | inactive | 
43 | CC(C)N(C(=O)[C@H]1C[C@H](CC(=O)NCCCN(C)C)C(=O)N2CCc3c([nH]c4cc(-c5ccco5)ccc34)[C@]12C)C(C)C |  | inconclusive: 18.4 µM [falling, single point]
44 | Cc1cc(C)c2c(N)c(C(=O)NC3CCCC3)sc2n1 | inconclusive: -24.9% | 
45 | COc1cc(C(=O)Oc2cc(N)n(S(=O)(=O)c3ccccc3)n2)cc(OC)c1OC |  | inconclusive: 35.5 µM [falling, single point]
46 | CN(CC(=O)NCC(c1ccccc1)N1CCCC1)S(=O)(=O)c1ccc(Cl)cc1 (stereo unspecified) | inconclusive: -1.68% | 
47 | O=C(Nc1cccc(-c2nc3ccccc3s2)c1)c1cccs1 |  | inconclusive: 2.31 µM [falling, partial curve]
48 | OC(CNC1CCCc2ccccc21)COc1c(Cl)cccc1Cl (stereo unspecified) |  | inconclusive: 10.3 µM [falling, partial curve, poor fit]
49 | Cc1ccc(S(=O)(=O)N2CCN(Cc3ccccn3)CC2)cc1 | inconclusive: 2.9% | 
50 | CC1CN(C)C(C)c2c1oc1ccc([N+](=O)[O-])cc21 (stereo unspecified) | inactive | 
51 | Cc1nnc(NC(=O)CN2CCN(Cc3ccc(F)cc3Cl)CC2)s1 | inconclusive: 0.286% | 

No new results follow: an excerpt of the list.
Row | SMILES | activity change, negative = inhibition | Potency
46 | CN(CC(=O)NCC(c1ccccc1)N1CCCC1)S(=O)(=O)c1ccc(Cl)cc1 (stereo unspecified) | inconclusive: -1.68% | 
47 | O=C(Nc1cccc(-c2nc3ccccc3s2)c1)c1cccs1 |  | inconclusive: 2.31 µM [falling, partial curve]
48 | OC(CNC1CCCc2ccccc21)COc1c(Cl)cccc1Cl (stereo unspecified) |  | inconclusive: 10.3 µM [falling, partial curve, poor fit]
49 | Cc1ccc(S(=O)(=O)N2CCN(Cc3ccccn3)CC2)cc1 | inconclusive: 2.9% | 
